Results published in the supplement of paper PMC10849652.
The list shows a part of the results. Residues, ends and D or L forms follow the SMILES beside them. *: point of attachment. Cbz = O=C(OCc1ccccc1)*

The chains behind the UniProt entries cited, without tags or fusion partners. Where a name states a change or a piece, a line headed by the entry shows the natural chain unless it says otherwise.
UniProt O43172: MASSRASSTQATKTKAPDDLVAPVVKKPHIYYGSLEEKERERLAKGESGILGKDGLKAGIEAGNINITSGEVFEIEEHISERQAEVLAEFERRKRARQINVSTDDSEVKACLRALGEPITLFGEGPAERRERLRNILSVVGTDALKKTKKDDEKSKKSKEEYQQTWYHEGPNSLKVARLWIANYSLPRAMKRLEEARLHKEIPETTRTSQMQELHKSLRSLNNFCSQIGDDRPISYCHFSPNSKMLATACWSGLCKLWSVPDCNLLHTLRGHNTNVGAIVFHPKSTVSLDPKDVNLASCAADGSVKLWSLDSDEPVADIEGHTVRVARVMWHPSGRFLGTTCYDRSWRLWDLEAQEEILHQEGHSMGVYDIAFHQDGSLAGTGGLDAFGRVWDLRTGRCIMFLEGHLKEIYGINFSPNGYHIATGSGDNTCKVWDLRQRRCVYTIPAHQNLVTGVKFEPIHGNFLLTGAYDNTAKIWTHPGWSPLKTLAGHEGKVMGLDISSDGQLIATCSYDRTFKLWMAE
UniProt Q14558: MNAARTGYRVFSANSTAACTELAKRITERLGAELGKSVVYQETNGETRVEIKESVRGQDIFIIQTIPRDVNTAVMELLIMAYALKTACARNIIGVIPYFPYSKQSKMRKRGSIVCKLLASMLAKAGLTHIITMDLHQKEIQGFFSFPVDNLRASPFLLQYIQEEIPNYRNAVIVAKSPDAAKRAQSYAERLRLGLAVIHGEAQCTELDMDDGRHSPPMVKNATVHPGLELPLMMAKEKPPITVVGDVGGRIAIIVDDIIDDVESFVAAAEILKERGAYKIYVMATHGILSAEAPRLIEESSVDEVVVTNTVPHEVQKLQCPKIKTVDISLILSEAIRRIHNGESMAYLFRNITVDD
UniProt Q4J6C6, whole entry, looked up: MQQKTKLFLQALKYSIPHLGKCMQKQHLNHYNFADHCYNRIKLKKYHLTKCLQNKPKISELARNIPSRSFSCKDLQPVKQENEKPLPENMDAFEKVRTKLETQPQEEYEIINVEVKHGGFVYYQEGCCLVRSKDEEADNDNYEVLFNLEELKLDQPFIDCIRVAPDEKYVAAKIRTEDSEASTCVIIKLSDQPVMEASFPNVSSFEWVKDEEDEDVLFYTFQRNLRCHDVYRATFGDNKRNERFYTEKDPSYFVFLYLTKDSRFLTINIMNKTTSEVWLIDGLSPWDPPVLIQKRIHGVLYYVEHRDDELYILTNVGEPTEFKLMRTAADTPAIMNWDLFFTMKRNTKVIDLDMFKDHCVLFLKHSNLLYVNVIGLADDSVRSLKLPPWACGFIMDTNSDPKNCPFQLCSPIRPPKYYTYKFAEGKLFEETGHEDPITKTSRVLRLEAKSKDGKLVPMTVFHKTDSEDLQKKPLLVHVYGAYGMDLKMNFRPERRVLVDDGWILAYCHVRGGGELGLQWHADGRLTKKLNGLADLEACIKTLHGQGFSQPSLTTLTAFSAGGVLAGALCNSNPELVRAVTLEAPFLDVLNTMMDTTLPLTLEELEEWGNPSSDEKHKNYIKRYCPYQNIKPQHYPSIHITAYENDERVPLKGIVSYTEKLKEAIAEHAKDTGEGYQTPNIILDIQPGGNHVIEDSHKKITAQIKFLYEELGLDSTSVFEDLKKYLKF
UniProt P30048: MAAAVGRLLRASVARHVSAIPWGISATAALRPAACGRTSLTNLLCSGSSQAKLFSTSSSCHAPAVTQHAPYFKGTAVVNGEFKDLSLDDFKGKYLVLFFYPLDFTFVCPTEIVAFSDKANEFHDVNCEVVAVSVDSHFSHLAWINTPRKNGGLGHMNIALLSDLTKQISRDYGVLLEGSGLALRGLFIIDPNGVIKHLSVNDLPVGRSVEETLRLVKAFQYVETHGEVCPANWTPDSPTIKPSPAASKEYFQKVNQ
UniProt Q6P2P2: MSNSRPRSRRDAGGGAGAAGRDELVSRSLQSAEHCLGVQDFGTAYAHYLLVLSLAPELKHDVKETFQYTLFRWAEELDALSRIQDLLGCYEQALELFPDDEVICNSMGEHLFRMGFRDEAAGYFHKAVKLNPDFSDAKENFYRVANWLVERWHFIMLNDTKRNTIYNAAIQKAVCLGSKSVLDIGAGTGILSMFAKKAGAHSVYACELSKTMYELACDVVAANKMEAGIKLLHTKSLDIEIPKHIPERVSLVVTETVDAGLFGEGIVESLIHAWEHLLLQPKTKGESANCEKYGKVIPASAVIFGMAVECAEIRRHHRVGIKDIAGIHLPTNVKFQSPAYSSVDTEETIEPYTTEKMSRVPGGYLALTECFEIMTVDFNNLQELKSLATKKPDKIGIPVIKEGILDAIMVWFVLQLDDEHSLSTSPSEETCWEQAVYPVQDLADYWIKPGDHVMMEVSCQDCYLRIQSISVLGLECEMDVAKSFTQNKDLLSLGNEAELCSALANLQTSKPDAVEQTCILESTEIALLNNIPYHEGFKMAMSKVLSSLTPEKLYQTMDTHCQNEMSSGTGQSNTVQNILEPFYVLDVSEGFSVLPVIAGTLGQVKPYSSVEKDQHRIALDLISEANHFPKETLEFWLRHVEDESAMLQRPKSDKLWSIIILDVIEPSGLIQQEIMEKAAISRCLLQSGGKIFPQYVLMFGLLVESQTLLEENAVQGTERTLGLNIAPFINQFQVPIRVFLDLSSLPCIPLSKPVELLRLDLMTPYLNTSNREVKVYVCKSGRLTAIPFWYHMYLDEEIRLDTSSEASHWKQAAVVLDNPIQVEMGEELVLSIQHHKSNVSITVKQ
UniProt Q5H9R7: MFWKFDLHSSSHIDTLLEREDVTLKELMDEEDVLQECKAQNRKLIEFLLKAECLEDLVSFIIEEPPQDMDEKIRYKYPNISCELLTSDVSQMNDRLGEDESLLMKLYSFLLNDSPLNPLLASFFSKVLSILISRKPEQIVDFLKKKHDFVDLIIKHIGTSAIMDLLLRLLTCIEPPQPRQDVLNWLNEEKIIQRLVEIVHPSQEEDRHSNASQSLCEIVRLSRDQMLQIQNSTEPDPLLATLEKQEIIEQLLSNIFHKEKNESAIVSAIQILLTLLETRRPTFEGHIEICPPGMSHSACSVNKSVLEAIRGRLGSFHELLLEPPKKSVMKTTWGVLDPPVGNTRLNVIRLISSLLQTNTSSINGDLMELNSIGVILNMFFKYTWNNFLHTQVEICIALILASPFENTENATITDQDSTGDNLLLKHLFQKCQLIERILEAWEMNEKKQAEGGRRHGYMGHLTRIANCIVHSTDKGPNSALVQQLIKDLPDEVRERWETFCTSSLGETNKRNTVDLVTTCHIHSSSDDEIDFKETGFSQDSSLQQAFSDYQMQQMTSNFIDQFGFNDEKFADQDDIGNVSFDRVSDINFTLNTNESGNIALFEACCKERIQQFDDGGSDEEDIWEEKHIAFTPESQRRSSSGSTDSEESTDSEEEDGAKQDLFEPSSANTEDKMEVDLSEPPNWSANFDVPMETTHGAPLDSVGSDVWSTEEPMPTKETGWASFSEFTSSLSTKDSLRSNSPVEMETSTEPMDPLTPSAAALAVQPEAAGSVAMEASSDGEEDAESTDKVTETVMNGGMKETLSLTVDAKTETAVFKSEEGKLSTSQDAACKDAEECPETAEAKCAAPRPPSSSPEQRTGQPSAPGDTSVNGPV
UniProt Q9NY27: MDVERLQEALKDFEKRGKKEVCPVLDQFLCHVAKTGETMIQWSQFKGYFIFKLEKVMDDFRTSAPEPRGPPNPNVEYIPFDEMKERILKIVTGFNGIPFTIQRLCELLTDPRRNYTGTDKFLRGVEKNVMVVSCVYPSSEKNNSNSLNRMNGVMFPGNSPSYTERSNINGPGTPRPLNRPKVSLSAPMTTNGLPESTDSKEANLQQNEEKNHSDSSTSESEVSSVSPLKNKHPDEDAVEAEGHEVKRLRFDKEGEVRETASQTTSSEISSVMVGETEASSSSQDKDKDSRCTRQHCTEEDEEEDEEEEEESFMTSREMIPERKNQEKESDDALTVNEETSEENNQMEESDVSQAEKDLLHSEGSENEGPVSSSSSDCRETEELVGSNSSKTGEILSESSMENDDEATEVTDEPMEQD
UniProt Q9ULR3: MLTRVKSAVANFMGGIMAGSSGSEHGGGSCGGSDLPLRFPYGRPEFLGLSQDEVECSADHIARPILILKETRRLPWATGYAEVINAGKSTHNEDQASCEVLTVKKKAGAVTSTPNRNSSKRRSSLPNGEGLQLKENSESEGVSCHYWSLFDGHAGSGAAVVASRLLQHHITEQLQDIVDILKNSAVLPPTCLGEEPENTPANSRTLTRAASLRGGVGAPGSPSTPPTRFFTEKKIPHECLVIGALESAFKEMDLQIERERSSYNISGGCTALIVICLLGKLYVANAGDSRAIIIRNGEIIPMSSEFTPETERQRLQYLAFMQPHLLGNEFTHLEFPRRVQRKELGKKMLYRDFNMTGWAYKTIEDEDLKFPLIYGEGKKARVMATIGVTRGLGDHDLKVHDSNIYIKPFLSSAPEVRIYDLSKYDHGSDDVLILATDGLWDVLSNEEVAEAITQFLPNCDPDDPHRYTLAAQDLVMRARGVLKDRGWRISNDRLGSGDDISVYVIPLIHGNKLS
UniProt Q96QC0: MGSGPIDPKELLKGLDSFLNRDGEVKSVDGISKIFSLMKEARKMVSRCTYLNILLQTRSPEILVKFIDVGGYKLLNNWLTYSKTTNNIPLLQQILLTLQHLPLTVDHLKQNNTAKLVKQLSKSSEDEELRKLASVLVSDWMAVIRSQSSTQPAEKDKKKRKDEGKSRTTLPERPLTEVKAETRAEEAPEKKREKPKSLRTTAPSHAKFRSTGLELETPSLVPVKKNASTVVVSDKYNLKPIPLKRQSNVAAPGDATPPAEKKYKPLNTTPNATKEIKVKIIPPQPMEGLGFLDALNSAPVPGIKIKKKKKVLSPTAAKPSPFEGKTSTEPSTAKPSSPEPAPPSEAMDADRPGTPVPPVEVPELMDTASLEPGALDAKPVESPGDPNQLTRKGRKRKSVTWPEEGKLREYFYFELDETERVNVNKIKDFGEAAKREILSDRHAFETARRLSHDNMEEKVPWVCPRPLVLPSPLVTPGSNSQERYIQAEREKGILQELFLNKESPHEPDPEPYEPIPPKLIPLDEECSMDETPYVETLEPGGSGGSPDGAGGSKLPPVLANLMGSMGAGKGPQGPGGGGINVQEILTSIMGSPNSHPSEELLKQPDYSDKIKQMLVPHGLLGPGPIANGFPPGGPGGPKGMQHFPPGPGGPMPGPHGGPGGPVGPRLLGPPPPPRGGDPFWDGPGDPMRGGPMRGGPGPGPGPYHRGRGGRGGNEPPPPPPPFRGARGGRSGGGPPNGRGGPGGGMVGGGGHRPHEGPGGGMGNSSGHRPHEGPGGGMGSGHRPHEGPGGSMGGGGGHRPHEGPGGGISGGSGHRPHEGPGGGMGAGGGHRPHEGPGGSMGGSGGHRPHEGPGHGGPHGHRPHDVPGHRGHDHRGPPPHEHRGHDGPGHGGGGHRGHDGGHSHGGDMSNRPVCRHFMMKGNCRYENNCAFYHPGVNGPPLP
UniProt P41743, whole entry, looked up: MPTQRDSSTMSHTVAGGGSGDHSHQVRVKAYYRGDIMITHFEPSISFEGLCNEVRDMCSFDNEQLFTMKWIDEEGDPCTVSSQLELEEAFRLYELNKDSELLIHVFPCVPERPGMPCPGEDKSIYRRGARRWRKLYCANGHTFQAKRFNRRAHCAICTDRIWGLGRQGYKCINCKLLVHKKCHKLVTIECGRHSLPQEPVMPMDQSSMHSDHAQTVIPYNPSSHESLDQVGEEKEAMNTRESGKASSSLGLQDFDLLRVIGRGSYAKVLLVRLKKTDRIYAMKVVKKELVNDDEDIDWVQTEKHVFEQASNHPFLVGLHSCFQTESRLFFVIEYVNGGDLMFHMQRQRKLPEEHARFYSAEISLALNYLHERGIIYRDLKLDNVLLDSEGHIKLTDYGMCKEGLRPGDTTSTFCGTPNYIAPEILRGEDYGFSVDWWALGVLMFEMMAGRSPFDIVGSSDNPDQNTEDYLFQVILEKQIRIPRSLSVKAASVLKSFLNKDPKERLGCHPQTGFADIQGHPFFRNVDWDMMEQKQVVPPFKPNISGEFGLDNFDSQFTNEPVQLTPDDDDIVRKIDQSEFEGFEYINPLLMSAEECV
UniProt P11908: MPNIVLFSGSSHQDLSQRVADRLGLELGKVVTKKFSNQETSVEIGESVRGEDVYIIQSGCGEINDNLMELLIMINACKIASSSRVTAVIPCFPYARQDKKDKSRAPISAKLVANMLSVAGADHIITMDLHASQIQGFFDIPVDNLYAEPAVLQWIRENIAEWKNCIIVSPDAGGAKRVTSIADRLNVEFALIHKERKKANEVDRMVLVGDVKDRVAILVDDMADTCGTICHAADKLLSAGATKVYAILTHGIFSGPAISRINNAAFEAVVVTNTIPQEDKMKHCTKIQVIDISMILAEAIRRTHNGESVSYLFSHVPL

What was measured:
Experiment in all cases: log2 fold change, soluble protein after heating vs DMSO (PISA); higher = thermal stabilisation; K562 cells, 10 uM, 30 min; active = over 0.2 and 3.5 SD of the protein, either way, in both replicates (recomputed)
[1] = compound: C#Cc1cccc(Nc2ncnc3cc(OCCOC)c(OCCOC)cc23)c1 [erlotinib]
Outline: (§1)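 Soluble protein was quantified by TMTpro 16plex LC-MS/MS after channel sums were equalised. It was obtained as the supernatant after 21,000xg for 90 min from pooled aliquots of K562 cells (2×10^6 cells/mL, 10 μM compound, 30 min) heated for 3 min across 48°C-58°C and extracted in PBS with 0.5% NP-40 at 4°C. Thermal stability values are relative to control samples and come from duplicates. They are given as log2 fold changes.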

[2] = compound: C/C(=N\NC(=O)C1=CC(=CC=C1)S(=O)(=O)N2CCOCC2)/C3=C(C=CC(=C3)Cl)O
Outline: as §1

[3] = compound: C1=CC(=C(C=C1Cl)C2=NC3=NC=CN=C3C(=N2)NC4=CC=NC=C4)F
Outline: as §1

[4] = compound: C1=CC(=CC=C1C2=NC3=C(N2)C=C(C=C3)C(=O)N)OC4=CC=C(C=C4)Cl
Outline: as §1

[5] = compound: C1=CC2=C(C=CC(=C2)/C=C\3/C(=O)NC(=NCC4=CC=CS4)S3)N=C1
Outline: as §1

[6] = compound: C1=CC2=NC=CN=C2C=C1/C=C/3\C(=O)NC(=O)S3
Outline: as §1

[7] = compound: C1=CC=C(C=C1)C2=NC(=C(N2)C3=CC=NC=C3)C4=CC(=C(C=C4)Cl)O
Outline: as §1

[8] = compound: C1=CC=C2C(=C1)C3=NNC4=CC=CC(=C43)C2=O
Outline: as §1

[9] = compound: C1CCN(C1)C(=O)NC2=CC=CC(=C2)NC3=NC=C(C(=N3)NCCC4=CN=CN4)Br
Outline: as §1

[10] = compound: C1CN(CCC1(CC2=CC=C(C=C2)Cl)N)C3=NC=NC4=C3C=CN4
Outline: as §1

[11] = compound: C1COCCN1CCN2C3=CC=CC=C3N=C2NC(=O)C4=CC(=CC=C4)[N+](=O)[O-] [IRAK-1-4 Inhibitor I]
Outline: as §1

[12] = compound: C=CC(=O)N1CCC[C@@H](n2nc(-c3ccc(Oc4ccccc4)cc3)c3c(N)ncnc32)C1 [ibrutinib]
Outline: as §1

[13] = compound: CC(=O)c1cnc2ccc(-c3cc(Cl)c(O)c(Cl)c3)nc2c1N[C@H]1CC[C@H](CN(C)C)CC1
Outline: as §1

[14] = compound: CC(C)(C)Cn1c(N)nc2ccc(-c3[nH]c(C(C)(C)C)nc3-c3ccc(F)cc3)nc21 [ralimetinib]
Outline: as §1

[15] = compound: CC(C)(O)CC(=O)NCCn1ccc2ncnc(Nc3ccc(Oc4cccc(C(F)(F)F)c4)c(Cl)c3)c21
Outline: as §1

[16] = compound: CC(C)C1=C2N=C(C=C(N2N=C1)NCC3=CC=CC=C3)NCCCCCCN
Outline: as §1

[17] = compound: CC(C)C[C@@H](C=O)NC(=O)[C@H](CC(C)C)NC(=O)[C@H](CC(C)C)NC(=O)OCc1ccccc1
Outline: as §1

[18] = compound: CC(C)N(C[C@H]1O[C@@H](n2cnc3c(N)ncnc32)[C@H](O)[C@@H]1O)[C@H]1C[C@@H](CCc2nc3cc(C(C)(C)C)ccc3[nH]2)C1 [pinometostat]
Outline: as §1

[19] = compound: CC1=C(C(CC(=O)N1)C2=CC=C(C=C2)C(F)(F)F)C(=O)NC3=C(C=C4C(=C3)C=NN4)F
Outline: as §1

[20] = compound: CC1=C(C2=C(C=C1)C(=O)C3=CC=CC=C3N2CCCN)C
Outline: as §1

Measured: log2 fold change

PRPF4 (UniProt O43172)
inactive: [1] 0.012 | [2] 0.039 | [3] 0.014 | [4] 0.01 | [5] 0.008 | [6] 0.008 | [7] -0.014 | [8] 0.04 | [9] 0.021 | [10] 0.032 | [11] 0.029 | [12] 0.008 | [13] -0.092 | [14] 0.005 | [15] -0.048 | [16] -0.114 | [17] 0.058 | [18] -0.005 | [19] 0 | [20] -0.117

PRPSAP1 isoform 2 (UniProt Q14558)
inactive: [1] -0.051 | [2] -0.04 | [3] -0.045 | [4] 0.01 | [5] -0.03 | [6] -0.001 | [7] 0.009 | [8] 0.003 | [9] 0.005 | [10] 0.017 | [11] 0.02 | [12] 0.018 | [13] 0.031 | [14] -0.018 | [15] 0.04 | [16] 0.082 | [17] -0.025 | [18] -0.046 | [19] 0.01 | [20] -0.017

PREPL (UniProt Q4J6C6)
inactive: [1] 0.008 | [2] 0.011 | [3] 0.009 | [4] 0.032 | [5] 0.027 | [6] 0 | [7] 0.002 | [8] 0.011 | [9] -0.005 | [10] 0.013 | [11] 0.065 | [12] 0.014 | [13] -0.051 | [14] -0.029 | [15] -0.055 | [16] -0.046 | [17] 0.024 | [18] 0.017 | [19] -0.035 | [20] 0.017

PRKAG2 (UniProt Q9UGJ0)
inactive: [1] -0.009 | [2] 0.045 | [3] 0.033 | [4] 0.006 | [5] -0.023 | [6] 0.021 | [7] 0.019 | [8] 0.051 | [9] 0.02 | [10] 0.016 | [11] 0.003 | [12] -0.052 | [13] -0.204 | [14] -0.052 | [15] -0.016 | [16] -0.053 | [17] -0.008 | [18] -0.001 | [19] 0.03 | [20] -0.038

PRDX3 (UniProt P30048)
inactive: [1] -0.062 | [2] -0.034 | [3] 0.02 | [4] -0.045 | [5] -0.006 | [6] 0.017 | [7] -0.056 | [8] 0.011 | [9] -0.019 | [10] -0.033 | [11] -0.001 | [12] 0.039 | [13] 0.02 | [14] -0.061 | [15] 0.06 | [16] 0.099 | [17] -0.003 | [18] -0.072 | [19] -0.006 | [20] 0.025

PPP2CA (UniProt P67775)
inactive: [1] -0.119 | [2] 0.087 | [3] 0.068 | [4] 0.099 | [5] 0.018 | [6] 0.006 | [7] -0.001 | [8] 0.01 | [9] -0.03 | [10] 0.053 | [11] 0.08 | [12] -0.011 | [13] -0.001 | [14] -0.045 | [15] 0.057 | [16] 0.017 | [17] -0.044 | [18] -0.089 | [19] 0.01 | [20] -0.006

PRMT9 (UniProt Q6P2P2)
inactive: [1] 0.06 | [2] -0.015 | [3] 0.003 | [4] 0.024 | [5] 0.002 | [6] 0.05 | [7] -0.07 | [8] 0.014 | [9] -0.031 | [10] 0.051 | [11] 0.033 | [12] -0.062 | [13] 0.034 | [14] 0.006 | [15] 0.167 | [16] -0.025 | [17] 0.061 | [18] 0.035 | [19] -0.116 | [20] 0.06

PPP6R3 isoform 5 (UniProt Q5H9R7)
inactive: [1] -0.004 | [2] -0.002 | [3] 0.048 | [4] -0.012 | [5] -0.001 | [6] 0.059 | [7] 0.003 | [8] 0.029 | [9] -0.027 | [10] 0.013 | [11] 0.009 | [12] 0.003 | [13] 0.037 | [14] -0.046 | [15] -0.008 | [16] 0.022 | [17] -0.016 | [18] -0.029 | [19] -0.01 | [20] -0.018

PPP4R2 (UniProt Q9NY27)
inactive: [1] 0.072 | [2] -0.01 | [3] 0.075 | [4] -0.02 | [5] 0.031 | [6] 0.041 | [7] -0.022 | [8] 0.011 | [9] 0.023 | [10] 0.033 | [11] 0.037 | [12] -0.025 | [13] -0.003 | [14] 0.048 | [15] 0.066 | [16] -0.015 | [17] 0.004 | [18] -0.003 | [19] 0.014 | [20] -0.082

Retrieved one by one from the list above (two):
PRDX3 (UniProt P30048)
inactive: [1] -0.062 | [2] -0.034 | [3] 0.02 | [4] -0.045 | [5] -0.006 | [6] 0.017 | [7] -0.056 | [8] 0.011 | [9] -0.019 | [10] -0.033 | [11] -0.001 | [12] 0.039 | [13] 0.02 | [14] -0.061 | [15] 0.06 | [16] 0.099 | [17] -0.003 | [18] -0.072 | [19] -0.006 | [20] 0.025

PRMT9 (UniProt Q6P2P2)
inactive: [1] 0.06 | [2] -0.015 | [3] 0.003 | [4] 0.024 | [5] 0.002 | [6] 0.05 | [7] -0.07 | [8] 0.014 | [9] -0.031 | [10] 0.051 | [11] 0.033 | [12] -0.062 | [13] 0.034 | [14] 0.006 | [15] 0.167 | [16] -0.025 | [17] 0.061 | [18] 0.035 | [19] -0.116 | [20] 0.06

Continuation.

PPM1H (UniProt Q9ULR3)
inactive: [1] 0.006 | [2] 0.002 | [3] 0.079 | [4] 0.024 | [5] 0.055 | [6] 0.049 | [7] 0.02 | [8] -0.013 | [9] -0.011 | [10] 0.056 | [11] -0.001 | [12] -0.013 | [13] -0.012 | [14] -0.029 | [15] -0.072 | [16] 0.017 | [17] -0.023 | [18] -0.078 | [19] 0.016 | [20] 0.042

PPP3CB isoform 4 (UniProt P16298)
inactive: [1] 0.034 | [2] -0.03 | [3] 0.024 | [4] 0.013 | [5] 0.069 | [6] 0.05 | [7] -0.015 | [8] 0.034 | [9] 0.002 | [10] -0.008 | [11] 0.004 | [12] -0.047 | [13] -0.05 | [14] 0.019 | [15] -0.054 | [16] -0.084 | [17] 0.014 | [18] 0.028 | [19] 0.046 | [20] -0.018

PPP1R10 (UniProt Q96QC0)
inactive: [1] -0.021 | [2] -0.175 | [3] -0.381 | [4] -0.043 | [5] -0.031 | [6] 0.091 | [7] -0.077 | [8] -0.109 | [9] -0.02 | [10] -0.188 | [11] -0.083 | [12] -0.004 | [13] 0.236 | [14] 0.143 | [15] 0.046 | [16] 0.071 | [17] 0.027 | [18] 0.353 | [19] -0.021 | [20] 0.223

PRRC1 (UniProt Q96M27)
inactive: [1] 0.01 | [2] -0.034 | [3] -0.018 | [4] -0.017 | [5] 0.005 | [6] 0.021 | [7] -0.053 | [8] -0.038 | [9] 0.007 | [10] 0.056 | [11] 0.016 | [12] 0.023 | [13] 0.006 | [14] -0.021 | [15] 0.013 | [16] 0.041 | [17] 0.004 | [18] -0.013 | [19] 0.009 | [20] 0.01

PRKCI (UniProt P41743)
inactive: [1] -0.001 | [2] 0.077 | [3] -0.095 | [4] 0.079 | [5] -0.003 | [6] 0.056 | [7] -0.002 | [8] 0.003 | [9] -0.007 | [10] -0.073 | [11] 0.009 | [12] 0.009 | [13] -0.091 | [14] -0.006 | [15] 0.004 | [16] -0.045 | [17] 0.035 | [18] 0.034 | [19] 0.026 | [20] 0.001

PPWD1 (UniProt Q96BP3)
inactive: [1] 0.031 | [2] 0.032 | [3] 0.049 | [4] 0.002 | [5] 0.037 | [6] 0.038 | [7] 0.013 | [8] -0.026 | [9] -0.006 | [10] 0.03 | [11] 0.012 | [12] 0.02 | [13] 0.007 | [14] -0.012 | [15] -0.037 | [16] 0.005 | [17] -0.028 | [18] -0.049 | [19] -0.004 | [20] 0.149

PRPS2 isoform 2 (UniProt P11908)
inactive: [1] -0.05 | [2] 0.014 | [3] 0.023 | [4] 0.002 | [5] 0.04 | [6] 0 | [7] -0.023 | [8] -0.008 | [9] 0.012 | [10] -0.01 | [11] -0.019 | [12] 0.003 | [13] -0.006 | [14] -0.074 | [15] -0.021 | [16] 0.07 | [17] -0.056 | [18] -0.01 | [19] 0.012 | [20] 0.065
